Experimental findings from the supplement of paper PMC8256030 are described below.

Values joined by “and” are separate entries in the source; they are usually repeats but may differ in a detail not shown here. Equal entries are not always repeated. The list shows a part of the results. Single values are uncertain here, since repeats match poorly.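 HEK293T cells were given each compound shortly before transfection with a reporter in which red mCherry is followed by the SARS-CoV-2 frameshift element and then GFP in the −1 frame, so GFP appears only after frameshifting.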

The test system of test [1] is SARS-CoV-2 -1 PRF reporter mCherry-FSE-GFP(-1). Kind of test: mCherry (red) intensity as percent of control; higher = higher upstream reporter expression. The settings on record: 10 µM; 24 h; HEK293T.
For test [2] the test system is unchanged. Kind of test: percent effect, decrease of GFP/mCherry ratio (-1 PRF reporter) relative to controls; higher = stronger frameshift inhibition. The settings on record: 10 µM; 24 h; HEK293T.

In turn, `NS(=O)(=O)c1ccc(N2CCCCS2(=O)=O)cc1` [sultiame] came in with a mCherry in test [1] of 107%. Moreover, the percent effect in test [2] is -10.3%.

In test [1], `C[C@H](CCC(=O)NCCS(=O)(=O)O)[C@H]1CC[C@H]2[C@@H]3[C@@H](O)C[C@@H]4C[C@H](O)CC[C@]4(C)[C@H]3CC[C@]12C` [Tauroursodeoxycholic acid] showed a mCherry of 80.3%. Moreover, the percent effect in test [2] was -2.66%.

Regarding `CC(C)C1O[C@H](CN)[C@@H](CN)O1.O=C([O-])CC(=O)[O-].[Pt+2]` [eptaplatin], the mCherry in test [1] came to 107%. The percent effect in test [2] was -5.72%.

As to `O=C(CCCl)NCCc1ccccc1` [fenaclon], the mCherry in test [1] was 119%. Besides, the percent effect in test [2] was -2.21%.

On to `CC(=O)O[C@]1(C(C)=O)CC[C@H]2[C@@H]3C[C@H](C)C4=CC(=O)CC[C@]4(C)[C@H]3CC[C@@]21C` [Medroxyprogesterone 17-Acetate], for which the mCherry in test [1] was determined as 56.3%. In test [2], the percent effect worked out at 3.26%.

In test [1], `COc1cc2nccc(Oc3ccc(NC(=O)NC4CC4)c(Cl)c3)c2cc1C(N)=O` [Lenvatinib] returned a mCherry of 90.7%. The percent effect in test [2] was -3.24%.

`COC(c1ccccc1)(c1ccccc1)[C@H](Oc1nc(C)cc(C)n1)C(=O)O` [ambrisentan] showed a mCherry in test [1] of 95.1%. In test [2], the percent effect was -4.04%.

In the case of `CC(C)C[C@H](NC(=O)CNC(=O)[C@H](Cc1ccc(O)cc1)NC(=O)[C@H](CO)NC(=O)[C@H](Cc1c[nH]c2ccccc12)NC(=O)[C@H](Cc1cnc[nH]1)NC(=O)[C@@H]1CCC(=O)N1)C(=O)N[C@@H](CCCNC(=N)N)C(=O)N1CCC[C@H]1C(=O)NCC(N)=O` [gonadorelin], the mCherry in test [1] came to 109%. The percent effect in test [2] stood at 3.22%.

Regarding `C1COC(NC(C2CC2)C2CC2)=N1` [rilmenidine], the mCherry in test [1] was found to be 90.7%. In test [2], the percent effect is -2.21%.

The compound `C#C[C@]1(OC(C)=O)CC[C@H]2[C@@H]3CCC4=CC(=NO)CC[C@@H]4[C@H]3CC[C@@]21CC` (mixture of isomers) [norgestimate] registered a mCherry in test [1] of 107%. The percent effect in test [2] is -2.58%.

For `Nc1c2c(nc3ccccc13)CCCC2O` (stereo not drawn) [velnacrine], the mCherry in test [1] worked out at 77.4%. The percent effect in test [2] is -2.02%.

Regarding `CC(=O)CC/C=C(\C)CC/C=C(\C)CC/C=C(\C)CCC=C(C)C` [teprenone], in test [1], the mCherry is 108%. In test [2], the percent effect was -0.112%.

`CC(=O)OCC(=O)[C@@]1(O)CC[C@H]2[C@@H]3CCC4=CC(=O)CC[C@]4(C)[C@H]3[C@@H](O)C[C@@]21C` [Hydrocortisone 21-acetate]: the mCherry in test [1] worked out at 155%. In test [2], the percent effect is 1.9%.

In test [1], `O=C(NC[C@H]1CN(c2ccc(N3CCOCC3=O)cc2)C(=O)O1)c1ccc(Cl)s1` [Rivaroxaban] showed a mCherry of 89.9%. Also, the percent effect in test [2] was -2.33%.

On to `C[C@]12Cc3c[nH]nc3C[C@@H]1CC[C@@H]1[C@@H]2CC[C@@]2(C)[C@H]1CC[C@]2(C)O` [Stanozolol], for which the mCherry in test [1] was 87.3% and 96%. The percent effect in test [2] is -2.77% and 1.48%.

Turning to `O=C(O)c1ccc[n+]([O-])c1` [oxiniacic acid], the mCherry in test [1] came out at 100%. Moreover, in test [2], the percent effect was -1.63%.

For the compound `COC(=O)CCc1ccc(OCC(O)CNC(C)C)cc1` (stereo not drawn) [esmolol], the mCherry in test [1] came to 113%. The percent effect in test [2] turned out to be 3.22%.

For the compound `CCOC(=O)c1cnc2c(cnn2CC)c1NN=C(C)C` [etazolate], the mCherry in test [1] was 88.6%. In addition, the percent effect in test [2] was 1.57%.

Regarding `NC(=O)NC(=O)C(Oc1ccc(Cl)cc1)Oc1ccc(Cl)cc1` [urefibrate], the mCherry in test [1] was found to be 64.9%. For the same compound, the percent effect in test [2] is -12.4%.

Compound `CCOC(=O)[C@H](CCc1ccccc1)N[C@@H](C)C(=O)N1C(=O)N(C)C[C@H]1C(=O)O` [imidapril] showed a mCherry in test [1] of 77.9%. Also, the percent effect in test [2] was -1.97%.

For `CO[C@H]1C[C@@H]2CC[C@@H](C)[C@@](O)(O2)C(=O)C(=O)N2CCCC[C@H]2C(=O)O[C@H]([C@H](C)C[C@@H]2CC[C@@H](OC(=O)C(C)(CO)CO)[C@H](OC)C2)CC(=O)[C@H](C)/C=C(\C)[C@@H](O)[C@@H](OC)C(=O)[C@H](C)C[C@H](C)/C=C/C=C/C=C/1C` [Torisel], the mCherry in test [1] was 96.1%. The percent effect in test [2] was -5.09%.

In the case of `CC1(C)S[C@@H]2[C@H](NC(=O)COc3ccccc3)C(=O)N2[C@H]1C(=O)O`, in test [1], the mCherry came out at 95.4%. Further, in test [2], the percent effect stood at 3.24%.

`C[C@@H]1C[C@H]2[C@@H]3C[C@H](F)C4=CC(=O)C(Cl)=C[C@]4(C)[C@@]3(F)[C@@H](O)C[C@]2(C)[C@@]1(O)C(=O)CO` [halometasone] registered a mCherry in test [1] of 58.9%. Further, the percent effect in test [2] was -1.34%.

With `O=[N+]([O-])c1ccc(S(=O)(=O)Nc2nccs2)cc1` [nitrosulfathiazole], in test [1], the mCherry came to 92.4%. The percent effect in test [2] was -1.99%.

With `C[N+]1(C)[C@@H]2C[C@@H](OC(=O)C(O)(c3cccs3)c3cccs3)C[C@H]1[C@@H]1O[C@@H]12` [Spiriva], in test [1], the mCherry is 100%. Also, the percent effect in test [2] was -1%.

The compound `O=C1CCC(c2ccc(-n3ccnc3)cc2)=NN1` [imazodan] displayed a mCherry in test [1] of 94.2%. Besides, the percent effect in test [2] was found to be 4.19%.

For `NC12CC3CC(CC(C3)C1)C2` [amantadine], the mCherry in test [1] stood at 115%. For the same compound, the percent effect in test [2] was -2.27%.

For `CCOc1nc2cccc(C(=O)OCc3oc(=O)oc3C)c2n1Cc1ccc(-c2ccccc2-c2noc(=O)[nH]2)cc1`, in test [1], the mCherry worked out at 120%. Also, in test [2], the percent effect is -2.24%.

Take `CNC(=O)c1cccc(NCC(=O)NCCc2ccc(OC)c(OC)c2)c1` [ecabapide]: the mCherry in test [1] came out at 92.2%. In addition, in test [2], the percent effect was -5.7%.

As to `CCc1cccc(NC2CC3CCC2C3)c1` (stereo not drawn), the mCherry in test [1] came to 52.7%. Moreover, the percent effect in test [2] was -13.6%.

The compound `CN1CCCC(CC2c3ccccc3Sc3ccccc32)C1` (stereo not drawn) [metixene] registered a mCherry in test [1] of 128%. Further, the percent effect in test [2] is -8.29%.

As to `CC(=O)Oc1ccccc1C(=O)O`, the mCherry in test [1] amounted to 113%. Also, in test [2], the percent effect was -9.09%.

On to `Nc1c(-c2cccc(C(F)(F)F)c2)nsc1C(=O)O` [amflutizole], for which the mCherry in test [1] worked out at 119%. The percent effect in test [2] is -2.47%.

For `N#Cc1ccc(C2CCCc3cncn32)cc1` (stereo not drawn) [fadrozole], the mCherry in test [1] was found to be 107%. Besides, the percent effect in test [2] was -0.57%.
